Measurements as given in PubChem BioAssay AID1259415 (National Center for Advancing Translational Sciences (NCATS), 2018).
In all, about 410,000 compounds went through this assay and about 18,000 (4.4%) were called active. Inconclusive results, whose numbers are uncertain, are shown with a selection of clear calls. Cut-off read from the data, not from the text of the source: active = activity change below about -60%; inconclusive = no clear call, values can overlap the other calls; inactive = above about -39%.
% is set by controls: 0 for no effect and ±100 for the full control effect.

Test: qHTS Assay for inhibitors of the human cytomegalovirus (HCMV)
Settings: HFF cells, HCMV-luciferase reporter, 72 h; at 57.5 µM; stronger effect = lower value
Summary of the method: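 Compounds were evaluated in HFFs infected with an HCMV luciferase reporter virus (MOI 1 PFU/cell). Luciferase in lysates collected 72 h post infection served as the replication measure.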
With `CCN(c1ccc(NC(=O)COC(=O)/C=C/c2cccs2)cc1)C(C)C` the activity change, negative = inhibition was inconclusive: -42.6%.
With `CC1=NOC2(C1)N(C)c1ccccc1C2(C)C` (configuration not stated) the activity change, negative = inhibition was inactive: 4.68%.
With `CCc1ccc(NC(=O)c2nc(S(=O)(=O)Cc3ccccc3)ncc2Cl)cc1` the activity change, negative = inhibition was active: -99.7%.
With `COc1ccc(C(=O)N2CCN(c3nc4cc(C)ccc4cc3C#N)CC2)c(OC)c1` the activity change, negative = inhibition was inactive: -20.9%.
In the case of `COCCN(C(=O)CCN1C(=O)C2CC=CCC2C1=O)c1c(N)n(CC(C)C)c(=O)[nH]c1=O` (configuration not stated), the activity change, negative = inhibition is reported as inactive: -37.4%.
With `Cc1nn2c(=O)cc(COC(=O)c3cccc(NC(=O)COc4ccccc4C)c3)nc2s1` the activity change, negative = inhibition was inconclusive: -43.3%.
For `O=C(CNC1CCCCC1)Nc1ccc(S(=O)(=O)N2CCCCC2)cc1`, the activity change, negative = inhibition was inconclusive: -40.4%.
In the case of `COCCC1CCCCN1C(=O)c1cc(COc2ccc(-n3cncn3)cc2)on1` (configuration not stated), the activity change, negative = inhibition is reported as active: -74%.
With `CC(C)(C)NC(=O)COC(=O)/C=C/c1ccc(F)cc1` the activity change, negative = inhibition was inconclusive: -52.7%.
With `COc1ccc(C2=NN(C(=O)CSc3nc4ccccc4s3)C(c3ccc(F)cc3)C2)cc1` (configuration not stated) the activity change, negative = inhibition was inconclusive: -46.1%.
With `Cc1ccc(C(=O)Nc2ccc3c(c2)nc2n3CCSC2)cc1` the activity change, negative = inhibition was inconclusive: -44.6%.
For `Cc1c(C(=O)N2CCC(C)CC2)c(S(=O)(=O)N(Cc2ccccc2)C(C)(C)C)c(C)n1C`, the activity change, negative = inhibition was inconclusive: -51.9%.
With `O=C(COC(=O)CCS(=O)(=O)c1ccccc1)Nc1ccc(N2CCCCC2)cc1` the activity change, negative = inhibition was inactive: -0.272%.
With `CN=C1SC(CC(=O)Nc2ccc(F)cc2F)C(=O)N1/N=C/c1ccc(OC(F)F)c(OC)c1` (configuration not stated) the activity change, negative = inhibition was inconclusive: -44.4%.
With `O=C(NCCC1=CCCCC1)c1ccc(Cl)c(S(=O)(=O)N2CCCCC2)c1` the activity change, negative = inhibition was active: -80.8%.
In the case of `CCOc1ccc(OCC)c(-c2c(=O)n(OCc3ccccc3Br)c3ccccc3[n+]2[O-])c1`, the activity change, negative = inhibition is reported as inconclusive: -43.3%.
For `Cc1c(Br)c([N+](=O)[O-])nn1CC(=O)Nc1ccc(Cc2ccncc2)cc1`, the activity change, negative = inhibition was inconclusive: -43.5%.
For `Cc1coc2c(C)c3oc(=O)c(CC(=O)NCc4ccccc4)c(C)c3cc12`, the activity change, negative = inhibition was inactive: -14.5%.
In the case of `CCCCn1c(SCC(=O)NCc2ccco2)nc2ccc(N3CCOCC3)cc2c1=O`, the activity change, negative = inhibition is reported as inconclusive: -50.9%.
For `N#Cc1cccc(C(=O)C(=O)N2CCCN(Cc3ccc(F)cc3)CC2)c1`, the activity change, negative = inhibition was inconclusive: -44.5%.
In the case of `CCOCCCn1c(SCC(=O)NC(C)C)nc2ccccc2c1=O`, the activity change, negative = inhibition is reported as active: -107%.
For `O=C(C1=C(O)C(=O)N(CCN2CCOCC2)C1c1cccc([N+](=O)[O-])c1)c1cccs1` (configuration not stated), the activity change, negative = inhibition was inconclusive: -48.1%.
For `CCCN1C(=O)C(O)(CC(=O)c2ccc(OC)c(OC)c2)c2ccccc21` (configuration not stated), the activity change, negative = inhibition was inconclusive: -45.9%.
With `CN1CCN(C(=O)c2ccc3c(c2)N(Cc2cccc(Cl)c2)C(=O)c2ccccc2S3(=O)=O)CC1` the activity change, negative = inhibition was inconclusive: -51.8%.
With `COc1cc(C)c(S(=O)(=O)N2CCOCC2)c(C)c1C` the activity change, negative = inhibition was inconclusive: -50.8%.
With `O=S1(=O)N(Cc2ccccc2F)CCCN1Cc1c(F)cccc1Cl` the activity change, negative = inhibition was inconclusive: -41.5%.
For `Clc1ccc2c(c1)c1cc(Cl)ccc1n2CN1CCOCC1`, the activity change, negative = inhibition was inconclusive: -46%.
In the case of `O=C(Nc1ccccc1F)c1nc(SCc2ccc(F)cc2)ncc1Cl`, the activity change, negative = inhibition is reported as inconclusive: -41.7%.
With `COc1ccccc1Nc1nc(-c2cccc([N+](=O)[O-])c2)cs1` the activity change, negative = inhibition was inactive: 5.93%.
With `COc1cc(OC)nc(-n2ncc(Br)c(Br)c2=O)n1` the activity change, negative = inhibition was active: -105%.
For `CCN(C(=O)Cn1ncc2c(=O)oc3ccc(C)cc3c21)c1cc(OC)ccc1OC`, the activity change, negative = inhibition was inactive: -4.65%.
For `CC(c1ccccc1)N1C(=O)C2C3C=CC(C4CC34)C2C1=O` (configuration not stated), the activity change, negative = inhibition was inconclusive: -43.7%.
In the case of `CCOC(=O)CNC(=O)CSc1nccn1Cc1ccco1`, the activity change, negative = inhibition is reported as inconclusive: -45.8%.
With `CCn1c(C)nc2cc(C(=O)NN=C(C)c3ccc(C#N)cc3)ccc21` the activity change, negative = inhibition was inconclusive: -41.7%.
For `O=C(CCC1CCCC1)N1CCc2c([nH]c3ccccc23)C1c1ccc(Cl)cc1` (configuration not stated), the activity change, negative = inhibition was active: -69.2%.
In the case of `CCc1cccc(C)c1NS(=O)(=O)c1cc(-c2cc(C)no2)ccc1C`, the activity change, negative = inhibition is reported as inconclusive: 0%.
In the case of `Cc1cc2c(nc1C)CCCN2Cc1ccc(Br)cc1`, the activity change, negative = inhibition is reported as inconclusive: -46.5%.
In the case of `O=C(NCCCn1ccnc1)c1ccc(NS(=O)(=O)c2ccc(Cl)c(Cl)c2)cc1`, the activity change, negative = inhibition is reported as inactive: -23.3%.
In the case of `CCOC(=O)c1[nH]c(C)c(CCC(=O)Nc2ccc(C(C)=O)cc2)c1C`, the activity change, negative = inhibition is reported as inactive: 6.98%.
For `Cc1ccc(NC(=O)C2CCN(S(=O)(=O)c3ccc(F)cc3)CC2)cc1`, the activity change, negative = inhibition was inconclusive: -40.6%.
In the case of `Nc1nc(=O)n(C2OC(CO)C(O)C2O)cc1F` (configuration not stated), the activity change, negative = inhibition is reported as active: -99%.
In the case of `O=C(Nn1c(-c2ccncc2)nc2ccccc2c1=O)c1ccc(Br)cc1`, the activity change, negative = inhibition is reported as inconclusive: -42.8%.
